Measured values from paper PMC10307939 (Pharmacology Research & Perspectives, 2023).

What was measured:
[1] = target: mouse kappa opioid receptor (Mus musculus, UniProt P33534); test: Radioligand competition binding, mKOR‐CHO membranes; conditions: K i at KOR divided by K i at MOR
[2] = target: T1, human delta‐opioid receptor (Homo sapiens, UniProt P41143); test: Radioligand competition binding, hDOR‐CHO membranes; conditions: K i at DOR divided by K i at MOR
[3] = target: T1, human delta‐opioid receptor; test: Ligand‐stimulated [35S]GTPγS binding, hDOR‐CHO membranes; type: biochemical
male and female ICR mice = test: Horizontal locomotor activity, 60‐min session; type: in vivo; conditions: Mus musculus, sc

## CN1c2ccccc2C(NCCCCCCC(=O)O)c2ccc(Cl)cc2S1(=O)=O (stereo not shown) [Tianeptine, reference compound]
[1]
  MOR/KOR (fold selectivity for MOR over KOR): >50 000 fold
[2]
  MOR/DOR (fold selectivity for MOR over DOR): 36.2 fold
[2]; listed as tianeptine
  MOR/DOR (fold selectivity for MOR over DOR): more than 30 fold
[3]; higher potency at MOR than at DOR
  Fold difference in [35S]GTPγS potency, MOR versus DOR: 3 fold
[3]; read-out: DOR E max
  Emax: 103 ± 3.72%
Male and female ICR mice; 1 h, read-out: E max (95%CL), % Methadone E max
  Emax: 103%
Male and female ICR mice; read-out: ED50 (95% CL)
  ED50: 18.3 mg/kg
